Where two headings read alike, the source gives them in different places.

The test system of data set [1] is WT α-spectrin SH3 domain (WT Spc-SH3). Put plainly: ITC titration of WT Spc-SH3 with p41. It is filed as binding, chicken. To be noted: 25°C; for ΔHb (enthalpy change of binding): global fit of three isotherms; for ΔHb (enthalpy change of binding) / p (number of protons exchanged with the buffer per mole of ligand bound): error = 95% confidence interval. As for the experimental part: (§1) The binding between the p41 decapeptide and the R21A Spc-SH3 mutant domain was studied by a combination of isothermal titration calorimetry (ITC) and differential scanning calorimetry (DSC) experiments. ITC experiments were performed at 25°C at both pH 3.0 and 7.0, using several buffers at a concentration of 20 mM. Similar ITC experiments were made with the WT Spc-SH3 domain for comparison. […] The contribution of protonation/deprotonation processes to the binding enthalpy change, was estimated using three buffers differing in their ionization heats (Figure 1B).
(§2) ITC experiments were performed at 25°C in a high-precision MCS titration calorimeter (Microcal Inc., Northampton, MA). Prior to the experiments the protein was extensively dialyzed at 4°C against the appropriate buffer. The solutions of p41 peptide were prepared by dissolving the lyophilized material directly into the buffer and subsequently adjusting the pH of the solution. All buffers and solutions were filtered and degassed and equilibrated to the working temperature prior to each experiment. Typically, a ≈ 0.1 mM protein solution in the calorimeter's cell was titrated with the ligand solution (at a concentration about 4 – 5 mM). Due to the relatively low binding affinities, titrations were made by using a profile of injection volumes of the ligand solution in order to define better the titration curve. An independent identical titration with buffer in the cell was made with the same ligand solution to determine the corresponding heats of dilution. The dilution thermogram was subtracted from that obtained for the titration of the protein. The area under each peaks of the net thermogram was integrated to determine the heat produced by the binding between the ligand and the protein after each injection. To account for the contribution of protonation/deprotonation processes to the binding enthalpy, the experiments were repeated at each pH using three buffers differing in their ionization heats. The binding constant, Kb, and the enthalpy change of binding, ΔHb, were determined by global fitting of the three binding isotherms measured in different buffers, using a model of binding to a single set of identical sites, according to the equation:
(§3) ΔQ/Δ[L]T=VC⋅(ΔHb+p⋅ΔHi)/2[1−1+Kb[L]T−nKb[M]T/(1+Kb[L]T−nKb[M]T)^2−4nKb2[M]T[L]T] MathType@MTEF@5@5@+=feaafiart1ev1aaatCvAUfKttLearuWrP9MDH5MBPbIqV92AaeXatLxBI9gBaebbnrfifHhDYfgasaacH8akY=wiFfYdH8Gipec8Eeeu0xXdbba9frFj0=OqFfea0dXdd9vqai=hGuQ8kuc9pgc9s8qqaq=dirpe0xb9q8qiLsFr0=vr0=vr0dc8meaabaqaciaacaGaaeqabaqabeGadaaakeaadaWcaaqaaiabfs5aejabdgfarbqaaiabfs5aejabcUfaBjabdYeamjabc2faDnaaBaaaleaacqWGubavaeqaaaaakiabg2da9maalaaabaGaemOvay1aaSbaaSqaaiabdoeadbqabaGccqGHflY1cqGGOaakcqqHuoarcqWGibasdaWgaaWcbaGaemOyaigabeaakiabgUcaRiabdchaWjabgwSixlabfs5aejabdIeainaaBaaaleaacqWGPbqAaeqaaOGaeiykaKcabaGaeGOmaidaamaadmaabaGaeGymaeJaeyOeI0YaaSaaaeaacqaIXaqmcqGHRaWkcqWGlbWsdaWgaaWcbaGaemOyaigabeaakiabcUfaBjabdYeamjabc2faDnaaBaaaleaacqWGubavaeqaaOGaeyOeI0IaemOBa4Maem4saS0aaSbaaSqaaiabdkgaIbqabaGccqGGBbWwcqWGnbqtcqGGDbqxdaWgaaWcbaGaemivaqfabeaaaOqaamaakaaabaGaeiikaGIaeGymaeJaey4kaSIaem4saS0aaSbaaSqaaiabdkgaIbqabaGccqGGBbWwcqWGmbatcqGGDbqxdaWgaaWcbaGaemivaqfabeaakiabgkHiTiabd6gaUjabdUealnaaBaaaleaacqWGIbGyaeqaaOGaei4waSLaemyta0Kaeiyxa01aaSbaaSqaaiabdsfaubqabaGccqGGPaqkdaahaaWcbeqaaiabikdaYaaakiabgkHiTiabisda0iabd6gaUjabdUealnaaDaaaleaacqWGIbGyaeaacqaIYaGmaaGccqGGBbWwcqWGnbqtcqGGDbqxdaWgaaWcbaGaemivaqfabeaakiabcUfaBjabdYeamjabc2faDnaaBaaaleaacqWGubavaeqaaaqabaaaaaGccaGLBbGaayzxaaaaaa@898D@ […]
In general terms: Isothermal titration calorimetry measures the heat released or taken up as one component is titrated into another.

In data set [2] the test system is R21A mutant of the α-spectrin SH3 domain (R21A Spc-SH3). Put plainly: ITC titration of R21A Spc-SH3 with p41. The following applies: 25°C; for ΔHb (enthalpy change of binding): global fit of three isotherms; for ΔHb (enthalpy change of binding) / p (number of protons exchanged with the buffer per mole of ligand bound): error = 95% confidence interval. Format: binding, chicken. As for the experimental part: as §1, §2, §3

Data set [3] has as its system SH3 domain of the Abl tyrosine kinase (Abl-SH3). To be noted: ITC, 25°C, cited from earlier work. An excerpt: The affinities are much lower than that of the Abl-SH3 domain for p41 under similar conditions, which is in the range of 2 × 10^5 – 4 × 10^5 M^-1 [16]. In all cases the binding is driven by a large and favourable enthalpy change, partially compensated by an unfavourable entropy change. A similar thermodynamic signature is usually observed for the binding of proline-rich peptides to other SH3 domains. The very small variation of the binding enthalpies with the ionization enthalpy of the buffers ... || We have performed a global analysis of the ΔCpapp MathType@MTEF@5@5@+=feaafiart1ev1aaatCvAUfKttLearuWrP9MDH5MBPbIqV92AaeXatLxBI9gBaebbnrfifHhDYfgasaacH8akY=wiFfYdH8Gipec8Eeeu0xXdbba9frFj0=OqFfea0dXdd9vqai=hGuQ8kuc9pgc9s8qqaq=dirpe0xb9q8qiLsFr0=vr0=vr0dc8meaabaqaciaacaGaaeqabaqabeGadaaakeaacqqHuoarcqWGdbWqdaqhaaWcbaGaemiCaahabaGaemyyaeMaemiCaaNaemiCaahaaaaa@34D4@ curves using a simple model in which the protein/ligand binding and protein unfolding equilibria are coupled (Figure 2). This analysis is, with minor modifications, similar to that used previously for the analysis of the interaction be ...

The mark [4] stands for this setting: pH 3.0, three buffers differing in ionization heat.
The mark [5] stands for this setting: pH 7.0, three buffers differing in ionization heat.

In the case of “APSYSPPPPP [p41, synthetic decapeptide …, both acetylated and methylated in its termini]”, the TΔSb in data set [1] (pH 3.0) is -5.35 kcal/mol; in data set [1] (pH 7.0), -5.78 kcal/mol; in data set [2] (pH 3.0) it was -6.45 kcal/mol; in data set [2] (pH 7.0) it was -8.22 kcal/mol; in data set [3] (pH 3.0), -15 kcal/mol; in data set [3] (pH 7.0) it was -14.4 kcal/mol. The ΔGb in data set [1] (pH 3.0) is -5.14 kcal/mol; in data set [1] (pH 7.0) it was -5.07 kcal/mol; in data set [2] (pH 3.0) it was -5.81 kcal/mol; in data set [2] (pH 7.0), -5.81 kcal/mol; in data set [3] (pH 3.0) it was -7.27 kcal/mol; in data set [3] (pH 7.0) it was -7.5 kcal/mol. In addition, the “ΔHb (enthalpy change of binding)” value in data set [1] (pH 3.0, 20 mM buffers) was -10.5 ± 0.789 kcal/mol; in data set [1] (pH 7.0, 20 mM buffers), -10.9 ± 1.51 kcal/mol; in data set [2] (pH 3.0, 20 mM buffers) it was -12.3 ± 0.406 kcal/mol; in data set [2] (pH 7.0, 20 mM buffers), -14 ± 0.598 kcal/mol; in data set [3] (pH 3.0), -22.3 kcal/mol; in data set [3] (pH 7.0), -21.9 kcal/mol. The “p (number of protons exchanged with the buffer per mole of ligand bound)” value is -0.07 ± 0.11 in data set [1] (setting [4]); 0.01 ± 0.12 in data set [1] (setting [5]); -0.29 ± 0.08 in data set [2] (setting [4]); 0.06 ± 0.05 in data set [2] (setting [5]); 0.1 in data set [3] (pH 7.0). In data set [2] (at both pH values (3.0 and 7.0), R21A vs WT Spc-SH3), the “net Gibbs energy gain of binding upon R21A mutation” value was “about -3 kJ mol^-1”.
